This experiment deals with T1, CTL2-GFP (C. trachomatis L2/434/Bu, GFP-expressing).
T1 construct: L2/434/Bu, GFP-expressing
Details: species or system HeLa; Intracellular C. trachomatis growth in HeLa cells, bulk GFP fluorescence relative to DMSO. The conditions noted are these: bulk GFP, single well, 28.5 h, 10 µM, inhibitor.

Where two headings read alike, the source gives them in different places. Some of the results follow.

The values that follow come from article PMC12040169 (PLOS Biology, 2025).

As to `CCOC(=O)c1cccc(-n2ncc(CN(C)C)n2)c1` [CBK112866], the “% of control remaining” value was 105.688%.
For `O=C(c1cnc2cc(C(F)(F)F)ccc2c1O)N1CCN(c2ccccn2)CC1` [CBK107431], the “% of control remaining” value was determined as 68.8714%.
Take `COc1ccc(C(=O)N2CCC3(CCN(Cc4ccc(Cl)c(Cl)c4)C3)C2)cc1OC` (centres unmarked) [CBK132150]: the “% of control remaining” value came out at 122.047%.
Regarding `O=C(Nc1cccc(-c2nc3ccccc3s2)c1)c1ccc(Cn2cnnn2)cc1` [CBK285823], the “% of control remaining” value is recorded as 135.586%.
As to `O=C(CN1C(=O)c2ccccc2S1(=O)=O)N(Cc1ccccc1)Cc1ccccc1` [CBK265982], the “% of control remaining” value turned out to be 100%.
As for `O=C(C1CCN(S(=O)(=O)c2ccc3ccccc3c2)CC1)N1CCC(Cc2ccccc2)CC1` [CBK269558], the “% of control remaining” value was 149.222%.
Regarding `CS(=O)(=O)N(CC(=O)Nc1ccc(S(=O)(=O)N2CCCC2)cc1)c1ccc2c(c1)OCO2` [CBK268995], the “% of control remaining” value turned out to be 118.603%.
The same measure, in the same setting: to `CN(CP(=O)(O)CCc1ccccc1)S(C)(=O)=O` [CBK263068] belongs 99.8796%.
As for `CCCc1ccc(S(=O)(=O)Nc2nc(C)c(C(=O)O)s2)cc1` [CBK045555], the “% of control remaining” value is listed as 107.829%.
On the same count and under the same terms, with `O=C(CNS(=O)(=O)c1ccc(Oc2ccccc2)cc1)Nc1ccc(F)cc1` [CBK042229] the figure was 66.7498%; with `CCOc1ccccc1NC(C)CC(=O)O` (centres unmarked) [CBK058826], 131.2%; with `CC(C)n1cnnc1CN1CCN(c2ccc(C#N)cc2)CC1` [CBK307714], 144.571%.
On to `O=C(Cc1c[nH]c2ccccc12)N1CCC2(CCCN(C(=O)c3cccnc3)C2)C1` (centres unmarked) [CBK131604], for which the “% of control remaining” value was found to be 95.7536%.
Consider `COC(=O)c1cn([C@H]2CO[C@H]3[C@@H]2OC[C@H]3O)nn1` [CBK289491], for which the “% of control remaining” value is 132.395%.
Consider `Nc1ncnc2c1nc1n2[C@H]2C[C@@H](O)[C@H](O2)C1=O` [CBK201259], for which the “% of control remaining” value came to 135.306%.
For `CCCc1ccc(S(=O)(=O)N(c2ccccc2)C2CCNCC2)cc1` [CBK165121T], the “% of control remaining” value is recorded as 156.461%.
Still for that read-out and setting: to `Cc1c(CN2CCCC2(C)C(=O)NC2CCCC2)cnn1C` (centres unmarked) [CBK281960] belongs 98.7587%.
Regarding `COc1ccc(CN2CCC(Oc3nccnc3OCCN3CCOCC3)CC2)cc1` [CBK082922T], the “% of control remaining” value is 94.4369%.
Turning to `O=C(O)c1ccc(CNCc2c(F)cccc2Cl)cc1` [CBK269496C], the “% of control remaining” value (Bulk GFP fluorescence) was found to be 94.7855%.
With `Fc1ccc(CCN2CCC(Oc3cncc(OCc4cccnc4)n3)C2)cc1` (centres unmarked) [CBK084469], the “% of control remaining” value came out at 92.8169%.
With `COCC(=O)NC1CCN(CC2(c3ccccc3F)CCCC2)CC1` [CBK284850], the “% of control remaining” value turned out to be 110.004%.
As for `COc1ccc(NC(=O)CSc2nnc(C3CC3)n2C)c(OC)c1` [CBK270303], the “% of control remaining” value came to 175.099%.
Turning to `CC(Oc1cccc(Br)c1)c1nc(-c2ccc(-n3cccc3)cc2)no1` (centres unmarked) [CBK293986], the “% of control remaining” value worked out at 129.98%.
`CN(C)CCCNC(=S)Nc1ccc(Cl)cc1Cl` [CBK264183]: the “% of control remaining” value was found to be 126.92%.
On the same count and under the same terms, to `Cc1ncc(CN(CCN(C)C)Cc2cccs2)n1C` [CBK282993] belongs 126.8%.
With `O=C(NCCNc1cnccn1)c1cc(Br)ccc1F` [CBK253480], the “% of control remaining” value was 91.8652%.
On the same count and under the same terms, to `NC1(C(F)(F)F)Oc2cc(Cl)c(Cl)cc2O1` [CBK021805] belongs 126.748%; to `CC(C)c1ccc(-n2ncc3c(=O)[nH]cnc32)cc1` [CBK288096], 111.059%; to `C[C@H](c1ccccc1)n1c(=O)[nH]c2ncc(-c3cccc4ncccc34)nc21` [CBK064173], 98.8283%.
Take `O=c1nc(O)c2ccccc2s1` [CBK027968]: the “% of control remaining” value was determined as 125.469%.
Consider `O=C(NCC1COc2ccccc2O1)c1ccc(-c2ccccc2)nc1NCCc1ccccn1` (centres unmarked) [CBK076554], for which the “% of control remaining” value is 124.518%.
With `CC(=O)NCC1CCCN(Cc2c[nH]nc2-c2c(F)cccc2F)C1` (centres unmarked) [CBK306382], the “% of control remaining” value came to 140.637%.
Still for that read-out and setting: with `O=C(Cn1nc(C(F)(F)F)c2c1CCC2)N1CCN(Cc2ccccc2)CC1` [CBK266113] the figure was 100%; with `O=CNC(Cc1ccc(O)c([N+](=O)[O-])c1)C(=O)O` (centres unmarked) [CBK262421], 113.052%; with `CS(=O)(=O)c1ccc(-c2cnc(N)c(NCc3ccncc3)n2)cc1` [CBK063647], 133.049%.
Regarding `Nc1ncc(-c2ccc3c(c2)OCO3)nc1NCc1ccncc1` [CBK063483], the “% of control remaining” value turned out to be 150.714%.
For the molecule `Cc1cccc(-c2n[nH]c(=S)n2CC(=O)NCc2cn(-c3ccccc3)nc2-c2ccccc2)c1` [CBK297941], the “% of control remaining” value was 174.338%.
With `Cc1occc1-c1nnc(NCc2cnn(C)c2C)o1` [CBK304819], the “% of control remaining” value is 113.891%.
For `O=C(CSc1nc2ccccc2c(=O)[nH]1)Nc1ccccc1O` [CBK269738], the “% of control remaining” value was determined as 128.112%.
With `CCOc1cc(OCC)cc(C(=O)N2CCC3(CC2)CC(=O)c2c(OC)cccc2O3)c1` [CBK168012], the “% of control remaining” value is 112.697%.
Take `COc1ccc2c(c1OC)C(=O)N(c1cccc([N+](=O)[O-])c1)C2` [CBK115318]: the “% of control remaining” value was 93.5644%.
In the case of `COCCNC(=O)CN(C)c1nc2ccccc2[nH]1` [CBK306378], the “% of control remaining” value came out at 134.391%.
For the molecule `CC(=O)Nc1ccc(-c2cncc(N(C)CCN(C)C)n2)cc1` [CBK065694], the “% of control remaining” value was 241.455%.
`COC(=O)C1C=C(NS(=O)(=O)c2ccc(-c3ccnc(SC)n3)s2)C=CC1` (centres unmarked) [CBK160388]: the “% of control remaining” value is on record as 107.704%.
As to `N=c1n(CCN2CCCCC2)c2ccccc2n1CC(O)COc1ccc(Cl)cc1` (centres unmarked) [CBK262512C], the “% of control remaining” value was 112.857%.
As to `CC(O)CNC(=O)C1(c2ccccc2)CCCC1` (centres unmarked) [CBK149542], the “% of control remaining” value turned out to be 133.642%.
Regarding `COc1ccc([C@@]23CC[C@@H](N)C[C@@H]2N(C(C)(C)C)CC3)cc1OC` [CBK067673], the “% of control remaining” value is 111.739%.
For `O=C(NC(=S)Nc1ccc2c(c1)Cc1ccccc1-2)c1cc([N+](=O)[O-])ccc1N1CCOCC1` [CBK268726], the “% of control remaining” value is on record as 119.928%.
With `O=C(Nc1cccc(O)c1)c1ccc(Br)c(S(=O)(=O)N2CCCCC2)c1` [CBK261736], the “% of control remaining” value was 105.731%.
For `O=S(=O)(NC[C@H]1C[C@@H]2CC[N@]1C[C@@H]2CN1CCOCC1)c1cccs1` [CBK288759], the “% of control remaining” value was 115%.
